Test results from article PMC11310305.
Results are given in words; binding and its absence hold for the method and conditions named. Binding seen in cells or lysates may run through a third protein. Some entries that bind do so weakly or less than the wild type.

Sequences of proteins named here, by UniProt entry; tags and fusion partners are left off.
UniProt P60903: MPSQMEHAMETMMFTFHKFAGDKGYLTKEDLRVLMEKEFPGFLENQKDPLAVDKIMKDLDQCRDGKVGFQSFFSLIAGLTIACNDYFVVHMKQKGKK

Biological target: S100 calcium-binding protein A10 (S100A10) (UniProt P60903)
Assay: co-IP; cell lysate incubated with anti-S100A10 or anti-cPLA2 antibody and protein A/G beads for 2 h, three washes with lysis buffer, SDS-PAGE and immunoblotting

binding: binds
B1: cPLA2 protein (encoded by PLA2G4A) (enzyme, UniProt P47712 1-749)
chain: MSFIDPYQHIIVEHQYSHKFTVVVLRATKVTKGAFGDMLDTPDPYVELFISTTPDSRKRTRHFNNDINPVWNETFEFILDPNQENVLEITLMDANYVMDETLGTATFTVSSMKVGEKKEVPFIFNQVTEMVLEMSLEVCSCPDLRFSMALCDQEKTFRQQRKEHIRESMKKLLGPKNSEGLHSARDVPVVAILGSGGGFRAMVGFSGVMKALYESGILDCATYVAGLSGSTWYMSTLYSHPDFPEKGPEEINEELMKNVSHNPLLLLTPQKVKRYVESLWKKKSSGQPVTFTDIFGMLIGETLIHNRMNTTLSSLKEKVNTAQCPLPLFTCLHVKPDVSELMFADWVEFSPYEIGMAKYGTFMAPDLFGSKFFMGTVVKKYEENPLHFLMGVWGSAFSILFNRVLGVSGSQSRGSTMEEELENITTKHIVSNDSSDSDDESHEPKGTENEDAGSDYQSDNQASWIHRMIMALVSDSALFNTREGRAGKVHNFMLGLNLNTSYPLSPLSDFATQDSFDDDELDAAVADPDEFERIYEPLDVKSKKIHVVDSGLTFNLPYPLILRPQRGVDLIISFDFSARPSDSSPPFKELLLAEKWAKMNKLPFPKIDPYVFDREGLKECYVFKPKNPDMEKDCPTIIHFVLANINFRKYRAPGVPRETEEEKEIADFDIFDDPESPFSTFNFQYPNQAFKRLHDLMHFNTLNNIDVIKEAMVESIEYRRQNPSRCSVSLSNVEARRFFNKEFLSKPKA
